PubChem BioAssay AID248 (DTP/NCI, 2004)
The list shows only some results of the screen, not a fair sample: it is rich in T/C values a quarter to a half above the control, in often repeated tests (any T/C) and in doses without a T/C. Further doses and runs are listed elsewhere. T/C: endpoint of the treated group in % of that of the vehicle group. Some entries give survivors of the animals treated and no T/C: the source holds a T/C of zero for them, seemingly a mark for toxic or unscored doses. Some survivor counts are full or nearly so, which does not show that the dose was tolerated: the source hardly ever lists a survival T/C far under the control, and the zero likely stands for such cases as well. Counts of survivors are from the toxicity check (mostly the fifth day) where no day follows; animals may have died later. Schedules are NCI's codes, read here as Q, the interval in days (D) or hours (H), X, the number of doses. Some schedules carry Z or #; the key to these is not given. Some doses were run more than once; the values are given in rising order. Where survival is the endpoint, the PubChem record calls one and a half times the control and up active, and a quarter to a half above the control has no call in these data; cut-offs in other NCI protocols can differ. Additions like (4×) stand for listed records that agree. Some T/C values are followed by the survivors on the day toxicity was checked, most often the fifth; where none is given, no animal had died by that day.

System: L1210 leukemia ip in BDF1 mice, survival T/C
Assay: NCI In Vivo Anticancer Drug Screen. Data for tumor model L1210 Leukemia (intraperitoneal) in B6D2F1 (BDF1) mice
Settings: T/C endpoint: mean survival time, higher T/C = longer survival
[1] = dose: 15.0 mg/kg/injection, schedule: Q01DX009 (ip), vehicle: water
[2] = dose: 400.0 mg/kg/injection, schedule: Q01DX001 (ip), vehicle: saline

## COC(=O)[C@@H](O)[C@](O)(CCC(C)C)C(=O)O[C@@H]1C(OC)=C[C@]23CCCN2CCc2cc4c(cc2[C@H]13)OCO4
dose: 1.87 mg/kg/injection, schedule: Q01DX009 (ip), vehicle: water
  T/C: 128 % of control
dose: 2.0 mg/kg/injection, schedule: Q03HX024 (ip), vehicle: saline
  T/C: 130 % of control
dose: 3.75 mg/kg/injection, schedule: Q01DX009 (ip), vehicle: water
  T/C: 112, 116, 123, 124 % of control
dose: 4.0 mg/kg/injection, schedule: Q01DX009 (ip), vehicle: saline
  T/C: 126 % of control
dose: 4.0 mg/kg/injection, schedule: Q01DX009 (sc), vehicle: saline, evaluated on day 30
  T/C: 126 % of control
dose: 4.0 mg/kg/injection, schedule: Q01DX009 (sc), vehicle: saline, evaluated on day 60
  T/C: 125 % of control
dose: 4.0 mg/kg/injection, schedule: Q03HX024 (ip), vehicle: saline
  T/C: 125 % of control
dose: 7.5 mg/kg/injection, schedule: Q01DX009 (ip), vehicle: water
  T/C: 126 (3×) and 129 % of control
dose: 8.0 mg/kg/injection, schedule: Q01DX009 (ip), vehicle: saline, evaluated on day 30
  T/C: 135 % of control
dose: 8.0 mg/kg/injection, schedule: Q01DX009 (ip), vehicle: saline, evaluated on day 60
  T/C: 134 % of control
dose: 8.0 mg/kg/injection, schedule: Q01DX009 (oral), vehicle: saline, evaluated on day 30
  T/C: 127 % of control [9 of 10 alive]
dose: 8.0 mg/kg/injection, schedule: Q01DX009 (oral), vehicle: saline, evaluated on day 60
  T/C: 133 % of control
dose: 8.0 mg/kg/injection, schedule: Q01DX009 (sc), vehicle: saline
  T/C: 135 % of control
dose: 8.0 mg/kg/injection, schedule: Q03HX008 (ip), vehicle: saline
  survivor count: 0 of 10
dose: 8.0 mg/kg/injection, schedule: Q03HX016 (ip), vehicle: saline
  survivor count: 0 of 10
dose: 8.0 mg/kg/injection, schedule: Q03HX024 (ip), vehicle: saline
  survivor count: 1 of 10
dose: 8.0 mg/kg/injection, schedule: Q08DX002 (ip), vehicle: saline
  survivor count: 0 of 10
[1]
  T/C: 94 [8 of 10 alive] and 109 % of control
  survivor count: 3 of 6 and 6 of 10
dose: 16.0 mg/kg/injection, schedule: Q01DX009 (oral), vehicle: saline, evaluated on day 30
  T/C: 129 % of control [7 of 10 alive]
dose: 16.0 mg/kg/injection, schedule: Q01DX009 (oral), vehicle: saline, evaluated on day 60
  T/C: 126 % of control
dose: 16.0 mg/kg/injection, schedule: Q01DX009 (sc), vehicle: saline
  T/C: 146 % of control [9 of 10 alive]
dose: 16.0 mg/kg/injection, schedule: Q03HX008 (ip), vehicle: saline
  survivor count: 0 of 10
dose: 16.0 mg/kg/injection, schedule: Q03HX016 (ip), vehicle: saline
  survivor count: 0 of 10
dose: 16.0 mg/kg/injection, schedule: Q03HX024 (ip), vehicle: saline
  survivor count: 0 of 10
dose: 30.0 mg/kg/injection, schedule: Q01DX009 (ip), vehicle: water
  survivor count: 0 of 10
dose: 32.0 mg/kg/injection, schedule: Q01DX001 (iv), vehicle: saline
  survivor count: 4 of 10
dose: 32.0 mg/kg/injection, schedule: Q01DX001 (sc), vehicle: saline
  survivor count: 6 of 10
dose: 32.0 mg/kg/injection, schedule: Q01DX006 (iv), vehicle: saline
  survivor count: 0 of 10
dose: 32.0 mg/kg/injection, schedule: Q01DX009 (ip), vehicle: saline
  survivor count: 0 of 10 and 3 of 10
dose: 32.0 mg/kg/injection, schedule: Q01DX009 (oral), vehicle: saline
  survivor count: 3 of 10 and 4 of 10
dose: 32.0 mg/kg/injection, schedule: Q01DX009 (sc), vehicle: saline
  survivor count: 0 of 10 and 2 of 10
dose: 64.0 mg/kg/injection, schedule: Q01DX001 (ip), vehicle: saline
  survivor count: 0 of 10
dose: 64.0 mg/kg/injection, schedule: Q01DX001 (iv), vehicle: saline
  survivor count: 0 of 10
dose: 64.0 mg/kg/injection, schedule: Q01DX001 (oral), vehicle: saline
  survivor count: 0 of 10
dose: 64.0 mg/kg/injection, schedule: Q01DX001 (sc), vehicle: saline
  survivor count: 0 of 10
dose: 64.0 mg/kg/injection, schedule: Q01DX009 (oral), vehicle: saline
  survivor count: 0 of 10
dose: 64.0 mg/kg/injection, schedule: Q04DX003 (ip), vehicle: saline
  survivor count: 2 of 10
dose: 64.0 mg/kg/injection, schedule: Q08DX002 (ip), vehicle: saline
  survivor count: 2 of 10
dose: 128.0 mg/kg/injection, schedule: Q01DX001 (ip), vehicle: saline
  survivor count: 0 of 10
dose: 128.0 mg/kg/injection, schedule: Q01DX001 (iv), vehicle: saline
  survivor count: 0 of 10
dose: 128.0 mg/kg/injection, schedule: Q01DX001 (oral), vehicle: saline
  survivor count: 0 of 10
dose: 128.0 mg/kg/injection, schedule: Q01DX001 (sc), vehicle: saline
  survivor count: 0 of 10
dose: 128.0 mg/kg/injection, schedule: Q08DX002 (ip), vehicle: saline
  survivor count: 0 of 10
dose: 256.0 mg/kg/injection, schedule: Q01DX001 (oral), vehicle: saline
  survivor count: 0 of 10

## Cc1c2oc3c(C)c(N)cc(C(=O)NC4C(=O)NC(C(C)C)C(=O)N5CCCC5C(=O)N(C)CC(=O)N(C)C(C(C)C)C(=O)OC4C)c3nc-2c(C(=O)NC2C(=O)NC(C(C)C)C(=O)N3CCCC3C(=O)N(C)CC(=O)N(C)C(C(C)C)C(=O)OC2C)c(N)c1=O (configuration not stated)
dose: 100.0 micrograms/kg/injection, schedule: Q01DX009 (ip), vehicle: saline + alcohol
  T/C: 133 % of control
dose: 400.0 micrograms/kg/injection, schedule: Q01DX009 (ip), vehicle: saline + alcohol
  survivor count: 7 of 8
dose: 400.0 micrograms/kg/injection, schedule: Q04DX003 (ip), vehicle: saline + alcohol
  T/C: 132 % of control
dose: 600.0 micrograms/kg/injection, schedule: Q04DX003 (ip), vehicle: saline + alcohol
  T/C: 132 % of control
dose: 1600.0 micrograms/kg/injection, schedule: Q04DX003 (ip), vehicle: saline + alcohol
  survivor count: 4 of 8

## Nc1nc(N)nc(CCCCCc2nc(N)nc(N)n2)n1
dose: 200.0 mg/kg/injection, schedule: Q01DX001 (ip), vehicle: carboxymethylcellulose (CMC)
  survivor count: 1 of 4

## O=[N+]([O-])c1ccc(O)cc1
dose: 100.0 mg/kg/injection, schedule: Q04DX003 (ip), vehicle: other
  survivor count: 6 of 6
dose: 200.0 mg/kg/injection, schedule: Q04DX003 (ip), vehicle: other
  survivor count: 0 of 6
[2]
  survivor count: 0 of 4
dose: 400.0 mg/kg/injection, schedule: Q04DX002 (ip), vehicle: saline with Tween-80
  survivor count: 0 of 3
dose: 400.0 mg/kg/injection, schedule: Q04DX003 (ip), vehicle: other
  survivor count: 0 of 6

## CC1(c2ccco2)C(=O)NC(=O)N1C(=O)CCl (configuration not stated)
dose: 400.0 mg/kg/injection, schedule: Q01DX009 (ip), vehicle: saline with Tween-80
  survivor count: 0 of 6

## C[N+](C)(C)CCCBr
dose: 5.0 mg/kg/injection, schedule: Q01DX001 (ip), vehicle: saline
  survivor count: 1 of 4
dose: 40.0 mg/kg/injection, schedule: Q01DX001 (ip), vehicle: saline
  survivor count: 0 of 4
dose: 80.0 mg/kg/injection, schedule: Q01DX001 (ip), vehicle: saline
  survivor count: 0 of 4
dose: 100.0 mg/kg/injection, schedule: Q01DX001 (ip), vehicle: saline
  survivor count: 0 of 4
dose: 200.0 mg/kg/injection, schedule: Q01DX001 (ip), vehicle: saline
  survivor count: 0 of 4
[2]
  survivor count: 0 of 4

## O=C1NC2C(NC(=O)N2Cl)N1Cl (configuration not stated)
dose: 20.0 mg/kg/injection, schedule: Q01DX Z (ip), vehicle: carboxymethylcellulose (CMC)
  survivor count: 6 of 6
dose: 80.0 mg/kg/injection, schedule: Q01DX Z (ip), vehicle: carboxymethylcellulose (CMC)
  survivor count: 1 of 6
dose: 160.0 mg/kg/injection, schedule: Q01DX Z (ip), vehicle: carboxymethylcellulose (CMC)
  survivor count: 0 of 6
dose: 200.0 mg/kg/injection, schedule: Q04DX003 (ip), vehicle: saline with Tween-80
  survivor count: 0 of 6
